# Earlier results as cited in patent US20100273829A1, “Methods for Treating Disorders Associated with Hyperlipidemia in a Mammal” (priority 2005, published 2010).
# Some results were stated once for a whole list of compounds, not compound by compound.
# Conditions: patients with genotype-confirmed hoFH, maximal dose of statins, 80 mg/day
smiles,measurement,value
CC(C)c1c(C(=O)Nc2ccccc2)c(-c2ccccc2)c(-c2ccc(F)cc2)n1CC[C@@H](O)C[C@@H](O)CC(=O)O [atorvastatin],mean LDL-C reduction,less than 20%
